This note sets out measurements from publication PMC8802528.

Sequences of proteins named here, by UniProt entry; tags and fusion partners are left off.
UniProt O15054: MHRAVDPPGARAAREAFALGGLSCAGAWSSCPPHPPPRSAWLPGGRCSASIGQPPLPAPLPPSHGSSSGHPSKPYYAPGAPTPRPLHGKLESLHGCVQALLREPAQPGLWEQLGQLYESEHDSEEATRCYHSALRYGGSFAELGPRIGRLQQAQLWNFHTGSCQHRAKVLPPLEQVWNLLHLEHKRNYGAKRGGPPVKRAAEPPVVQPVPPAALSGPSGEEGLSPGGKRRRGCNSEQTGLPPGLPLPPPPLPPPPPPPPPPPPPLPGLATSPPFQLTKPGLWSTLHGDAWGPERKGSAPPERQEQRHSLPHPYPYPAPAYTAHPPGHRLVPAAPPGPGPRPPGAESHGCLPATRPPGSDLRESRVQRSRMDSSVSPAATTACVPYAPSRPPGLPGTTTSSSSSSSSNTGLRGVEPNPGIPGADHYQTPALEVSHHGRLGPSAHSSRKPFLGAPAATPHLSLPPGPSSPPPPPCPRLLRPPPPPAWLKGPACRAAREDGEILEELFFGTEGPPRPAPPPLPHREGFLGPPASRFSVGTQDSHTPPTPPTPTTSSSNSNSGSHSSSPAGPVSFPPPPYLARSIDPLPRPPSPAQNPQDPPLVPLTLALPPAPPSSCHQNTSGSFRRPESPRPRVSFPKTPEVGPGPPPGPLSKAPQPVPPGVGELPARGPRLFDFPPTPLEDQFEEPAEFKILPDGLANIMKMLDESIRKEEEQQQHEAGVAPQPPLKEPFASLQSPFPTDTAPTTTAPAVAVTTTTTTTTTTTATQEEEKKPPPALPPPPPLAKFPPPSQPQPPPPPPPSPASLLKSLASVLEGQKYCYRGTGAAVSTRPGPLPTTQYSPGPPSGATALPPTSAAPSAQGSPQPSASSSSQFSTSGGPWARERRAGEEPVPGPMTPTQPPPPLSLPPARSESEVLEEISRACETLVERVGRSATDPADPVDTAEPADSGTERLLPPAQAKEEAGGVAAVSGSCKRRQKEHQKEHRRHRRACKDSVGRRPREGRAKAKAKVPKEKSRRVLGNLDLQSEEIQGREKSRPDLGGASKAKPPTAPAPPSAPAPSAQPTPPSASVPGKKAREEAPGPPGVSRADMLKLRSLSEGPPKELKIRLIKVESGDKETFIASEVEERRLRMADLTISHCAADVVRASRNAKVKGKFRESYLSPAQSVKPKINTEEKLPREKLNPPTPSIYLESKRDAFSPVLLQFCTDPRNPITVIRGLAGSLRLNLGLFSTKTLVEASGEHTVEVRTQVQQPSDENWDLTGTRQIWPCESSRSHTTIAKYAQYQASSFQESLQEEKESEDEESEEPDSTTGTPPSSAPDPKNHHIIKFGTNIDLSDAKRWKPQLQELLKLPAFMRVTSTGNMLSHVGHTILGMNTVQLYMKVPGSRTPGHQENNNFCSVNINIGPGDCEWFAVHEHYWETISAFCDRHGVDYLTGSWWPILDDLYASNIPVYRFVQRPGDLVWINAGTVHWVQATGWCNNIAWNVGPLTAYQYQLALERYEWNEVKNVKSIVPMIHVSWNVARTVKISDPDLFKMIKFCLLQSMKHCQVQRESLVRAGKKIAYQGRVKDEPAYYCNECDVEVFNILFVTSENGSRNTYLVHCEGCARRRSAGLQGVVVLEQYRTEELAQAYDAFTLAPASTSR

The test concerns the target T1, LIM homeodomain transcription factor islet1 (ISL1) (UniProt P61371).
T1 sequence: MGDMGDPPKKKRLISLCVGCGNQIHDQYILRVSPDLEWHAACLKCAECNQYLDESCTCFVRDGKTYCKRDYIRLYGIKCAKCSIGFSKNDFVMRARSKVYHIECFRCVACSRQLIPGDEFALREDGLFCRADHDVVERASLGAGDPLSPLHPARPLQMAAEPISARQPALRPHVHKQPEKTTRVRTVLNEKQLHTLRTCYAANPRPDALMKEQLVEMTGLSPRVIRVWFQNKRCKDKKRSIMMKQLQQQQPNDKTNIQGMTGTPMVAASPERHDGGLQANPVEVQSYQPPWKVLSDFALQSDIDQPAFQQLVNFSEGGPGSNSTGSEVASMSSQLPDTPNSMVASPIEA
In words: co-IP; cell lysate mixed with anti-ISL1/anti-KDM6B and protein A sepharose at 4 °C overnight; beads washed three times with lysis buffer; Western blot for KDM6B/ISL1; 10% supernatant as input.

No constants are given. Whether binding was seen depends on the method and setting. In cells and extracts the contact can be indirect. Some results given as binding are weak or reduced against the parent protein; the word gives no strength.

“Lysine-specific demethylase 6B (KDM6B) (from UniProt O15054 1-1643)”: the binding result is on record as “binds”.
